Laboratory results taken from US10005846B2, “Anti-transglutaminase 2 antibodies” (MEDICAL RESEARCH COUNCIL TECHNOLOGY, priority 2012, dated 2018).
Some results were stated once for a whole list of compounds, not compound by compound.

T1: human TG2 (Homo sapiens, UniProt P21980)
T1 sequence (P21980 1-687): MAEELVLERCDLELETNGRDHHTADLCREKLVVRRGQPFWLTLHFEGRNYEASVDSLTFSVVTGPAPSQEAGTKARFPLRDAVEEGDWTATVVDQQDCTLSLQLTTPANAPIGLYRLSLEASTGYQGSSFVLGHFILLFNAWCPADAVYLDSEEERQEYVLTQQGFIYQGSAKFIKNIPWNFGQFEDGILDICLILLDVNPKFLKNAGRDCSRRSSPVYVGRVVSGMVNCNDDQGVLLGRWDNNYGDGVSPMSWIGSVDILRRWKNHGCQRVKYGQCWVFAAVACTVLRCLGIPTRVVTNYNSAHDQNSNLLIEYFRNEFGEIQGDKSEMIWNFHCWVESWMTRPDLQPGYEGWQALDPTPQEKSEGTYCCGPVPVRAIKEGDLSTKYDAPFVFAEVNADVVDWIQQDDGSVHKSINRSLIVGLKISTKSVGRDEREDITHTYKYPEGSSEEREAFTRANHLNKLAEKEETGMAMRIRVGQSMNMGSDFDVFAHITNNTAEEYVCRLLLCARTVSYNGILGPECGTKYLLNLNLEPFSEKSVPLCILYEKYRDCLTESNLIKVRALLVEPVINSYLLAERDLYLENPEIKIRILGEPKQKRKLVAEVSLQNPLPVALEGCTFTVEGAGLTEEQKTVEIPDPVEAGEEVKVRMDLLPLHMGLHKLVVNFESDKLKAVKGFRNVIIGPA

B1: hBB001BB: humanised BB7 antibody (heavy chain hBB001HB, light chain hBB001KB by name) (antibody, V domains shown)
VH: EVQLLESGGGLVQPGGSLRLSCAASGIIFSSSAMSWVRQAPGKGLEWVATISSGGRSTYYPDSVKGRFTVSRDSSKNTLYLQMNSLRAEDTAVYYCAKLISPYWGQGTLVTVSS
VL: DIKMTQSPSSLSASVGDRVTITCKASQDINSYLTWFQQKPGKAPKTLIYLTNRLMDGVPSRFSGSGSGQEFLLTISSLQPEDFATYYCLQYVDFPYTFGQGTKVEIK
B2: cDC001: chimeric DC1 antibody: murine variable regions, human IgG1 and human kappa (antibody, V domains shown)
VH: EVQLVESGGGLVKPGGSLKLSCAASGFTLSTHAMSWVRQTPEKRLEWVATISSGGRSTYYPDSVKGRFTISRDNVKNTLYLQLSSLRSEDTAVYFCARLISTYWGQGTTLTVSS
VL: DITMTQSPSSIYASLGERVTITCKASQDINSYLTWFQQKPGKSPKILIYLVNRLVDGVPSRFSGSGSGQDYALTISSLEYEDMGIYYCLQYDDFPYTFGGGTKLEIK

Columns and labels:
Cynomolgus TG2 = assay: Biacore (SPR) affinity, cynomolgus TG2; type: binding, cynomolgus monkey
Procedure: (§1) Recombinant human TG2 was obtained from Zedira GmbH (cat. no.: T002). Recombinant cynomolgus monkey TG2 was obtained from Trenzyme. Surface plasmon resonance (SPR) was measured on a Biacore T200 instrument (GE Healthcare). CM5 chips (GE Healthcare cat. no.: BR-1006-68) were coated with monoclonal mouse anti-human IgG1 (Fc) (MAH) antibody (GE Healthcare cat. no.: BR-1008-39) by amine-coupling as described in the manufacturers instructions. HBS-EP+ buffer (0.01 M HEPES, 0.15 M NaCl, 3 mM EDTA, 0.05% v/v Surfactant P20) and HBS-P+ buffer (0.01 M HEPES, 0.15 M NaCl, 0.05% Surfactant P20) were purchased from GE Healthcare as 10× stocks (cat. nos.: BR-1006-69 and BR-1006-71). Calcium Chloride solution was obtained from Sigma Aldrich (cat. no.:21115).
(§2) The method employed to determine the affinity of the anti-TG2 antibodies involved the capture of the chimeric or humanised antibodies on a MAH coated CM5 chip, followed by the injection of a series of TG2 samples in running buffer. […] Dissociation of TG2 was typically measured for up to 5400 seconds (1.5 hours). […]
(§3) Kinetic data were exported from the Biacore T200 Evaluation Software and analysed using GraphPad Prism, where the association phases and dissociation phases were analysed separately using a one phase association model and one-phase exponential decay model respectively. […] KD values are calculated as mean koff/mean kon.

human TG2 = biological target: T1, human TG2; assay: Biacore (SPR) affinity, human TG2; type: binding; parameters: purchased Zedira GmbH T002
Procedure: as §1, §2, §3

Molecule	Kd (Cynomolgus TG2)	Kd (human TG2)
B1	≤ 0.12 nM	≤ 0.12 nM
B2	≤ 0.12 nM	≤ 0.12 nM
